These are yes or no findings as the source states them, for the method shown. Some entries that bind do so weakly or less than the wild type.
Target: T1, Selenomethionine-labelled PvuRts1I, Q52612
T1 chain: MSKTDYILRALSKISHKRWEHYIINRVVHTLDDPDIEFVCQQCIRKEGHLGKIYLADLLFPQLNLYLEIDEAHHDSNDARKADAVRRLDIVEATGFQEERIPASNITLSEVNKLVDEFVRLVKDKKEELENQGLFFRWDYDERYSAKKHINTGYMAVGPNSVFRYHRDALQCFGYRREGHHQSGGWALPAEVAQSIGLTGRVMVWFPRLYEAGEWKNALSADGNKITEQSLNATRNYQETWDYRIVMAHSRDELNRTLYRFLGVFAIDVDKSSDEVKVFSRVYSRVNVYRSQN
Experiment: crystal structure; Se-PvuRts1I without DNA, sitting drop, 286 K, space group P4(3)2(1)2, 2.9 Å; dimer with a twofold symmetry-related molecule, also identified by PISA; both purified
Settings: remark: other sources report otherwise

B1: Selenomethionine-labelled PvuRts1I, Q52612 1-293 (enzyme)
chain: MSKTDYILRALSKISHKRWEHYIINRVVHTLDDPDIEFVCQQCIRKEGHLGKIYLADLLFPQLNLYLEIDEAHHDSNDARKADAVRRLDIVEATGFQEERIPASNITLSEVNKLVDEFVRLVKDKKEELENQGLFFRWDYDERYSAKKHINTGYMAVGPNSVFRYHRDALQCFGYRREGHHQSGGWALPAEVAQSIGLTGRVMVWFPRLYEAGEWKNALSADGNKITEQSLNATRNYQETWDYRIVMAHSRDELNRTLYRFLGVFAIDVDKSSDEVKVFSRVYSRVNVYRSQN
modifications: here or on the partner: selenomethionine in place of methionine; selenomethionine in place of methionine
- binding: binds

From paper PMC4157451
